# Further values from the same series stand in other lists.
# Key:
# Format in all cases: functional
# Keratinocyte [1] = test: Effect on pro-inflammatory related gene expression in non-diabetic young human primary keratinocytes assessed as IL1B mRNA levels at 1.96 uM after 6 hrs by qPCR analysis
# Keratinocyte [2] = test: Effect on antiinflammatory related gene expression in non-diabetic young human primary keratinocytes assessed as NFKBIA mRNA levels at 1.96 uM after 6 hrs by qPCR analysis
# Keratinocyte [3] = test: Effect on transcription factor related gene expression in non-diabetic young human primary keratinocytes assessed as JUN mRNA levels at 1.96 uM after 6 hrs by qPCR analysis
# Keratinocyte [4] = test: Effect on cellular connection related gene expression in diabetic adult human primary keratinocytes assessed as CLDN4 mRNA levels at 1.96 uM after 6 hrs by qPCR analysis
# Keratinocyte [5] = test: Effect on ECM related gene expression in diabetic adult human primary keratinocytes assessed as FBN1 mRNA levels at 1.96 uM after 6 hrs by qPCR analysis
# Keratinocyte [6] = test: Effect on ECM related gene expression in non-diabetic young human primary keratinocytes assessed as FBN1 mRNA levels at 9.81 uM after 6 hrs by qPCR analysis
# Keratinocyte [7] = test: Effect on transcription factor related gene expression in non-diabetic adult human primary keratinocytes assessed as JUN mRNA levels at 9.81 uM after 6 hrs by qPCR analysis
# Keratinocyte [8] = test: Effect on growth factor related gene expression in diabetic adult human primary keratinocytes assessed as PDGFB mRNA levels at 9.81 uM after 6 hrs by qPCR analysis
# Fibroblast [9] = test: Effect on pro-inflammatory related gene expression in non-diabetic adult human primary fibroblasts assessed as IL1B mRNA levels at 1.96 uM after 6 hrs by qPCR analysis
# Fibroblast [10] = test: Effect on MMP1 mRNA expression levels in diabetic adult human primary fibroblasts at 1.96 uM after 6 hrs by qPCR analysis
# Fibroblast [11] = test: Effect on antioxidant related gene expression in non-diabetic adult human primary fibroblasts assessed as NFE2L2 mRNA levels at 9.81 uM after 6 hrs by qPCR analysis
smiles,measurement,setting,value
C=C(C)[C@@H]1CC[C@]2(CO)CC[C@]3(C)[C@H](CC[C@@H]4[C@@]5(C)CC[C@H](O)C(C)(C)[C@@H]5CC[C@]43C)[C@@H]12 [BETULIN],fold change (FC),Keratinocyte [1],0.8
same,fold change (FC),Keratinocyte [2],1.5
same,fold change (FC),Keratinocyte [3],1.5
same,fold change (FC),Keratinocyte [4],1.3
same,fold change (FC),Keratinocyte [5],1.3
same,fold change (FC),Keratinocyte [6],1.3
same,fold change (FC),Keratinocyte [7],1.9
same,fold change (FC),Keratinocyte [8],1.4
same,fold change (FC),Fibroblast [9],159
same,fold change (FC),Fibroblast [10],0.6
same,fold change (FC),Fibroblast [11],1.7

# From ChEMBL document CHEMBL3853270, “Influence of Birch Bark Triterpenes on Keratinocytes and Fibroblasts from Diabetic and Nondiabetic Donors” (2016)
